Screen size: about 310,000 compounds; about 17,000 (5.5%) were called active. The inconclusive results got no clear call from the source; some entries with a clear call stand among them for comparison. The call rests on the fitted dose curve; in most records, active means well fitted inhibition curve with a large enough effect; inconclusive means small, poorly fitted or top-dose-only effect, or effect the other way; inactive means no such curve, though single readings can be large or run the other way. A potency beside an inconclusive call is a rough fit, not a confirmed value.
target: Nuclear receptor ROR-gamma (Mus musculus) (UniProt P51450); experiment: qHTS for inhibitors of ROR gamma transcriptional activity; details: Drosophila S2 Gal4-RORgamma UAS-luciferase reporter, 20 h; series mostly up to 53.6 µM; further: nearly all actives have a fitted effect of over 60% in size
In short: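 In this cell-based reporter format, copper sulfate (700 uM final) drives Gal4–ROR gamma fusion expression from a metallothionein promoter in Drosophila Schneider cells; compounds preincubated 1 hr, reporter read after 20 hr at ambient temperature.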
Potency means the concentration at half of the fitted maximal effect.

Amino acid sequences for entries named in this document (tags omitted). A change or cut given only in a name is not applied to a line headed by its entry.
UniProt P51450: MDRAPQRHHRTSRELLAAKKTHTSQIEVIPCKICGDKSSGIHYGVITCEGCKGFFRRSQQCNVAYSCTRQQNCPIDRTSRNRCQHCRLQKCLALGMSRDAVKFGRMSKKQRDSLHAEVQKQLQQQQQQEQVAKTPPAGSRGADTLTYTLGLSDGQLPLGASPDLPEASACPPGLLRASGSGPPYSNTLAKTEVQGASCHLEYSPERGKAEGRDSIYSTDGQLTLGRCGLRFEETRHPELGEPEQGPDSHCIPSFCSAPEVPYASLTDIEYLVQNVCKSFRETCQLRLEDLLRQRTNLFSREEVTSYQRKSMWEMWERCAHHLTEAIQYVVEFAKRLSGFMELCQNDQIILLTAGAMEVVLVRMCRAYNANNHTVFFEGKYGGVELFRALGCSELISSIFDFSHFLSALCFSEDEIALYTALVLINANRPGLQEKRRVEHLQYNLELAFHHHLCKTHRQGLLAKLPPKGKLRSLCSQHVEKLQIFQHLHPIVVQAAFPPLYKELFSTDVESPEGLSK

Potency, active:
COCCCn1[nH]c2c3c(ccc2c1=O)C(=O)c1ccccc1C3=O 15.8 µM
O=C(Oc1c(CN2CCOCC2)cc(Cl)c2cccnc12)c1ccccc1Br 6.31 µM
O=C(CCCN1C(=O)/C(=C/c2ccccc2)SC1=S)Nc1ccccc1O 4.47 µM
C/C(=N\NC(=O)c1ccccc1)c1cc2cc([N+](=O)[O-])ccc2oc1=O 7.94 µM
Cc1ccc(NC(=S)NCC2CCCO2)c(OC(F)F)c1 (centres undefined) 11.2 µM
O=C(c1ccc2c3c(cccc13)CC2)C1CCCN(Cc2ccccn2)C1 (centres undefined) 3.55 µM
Cc1ccc(CNC(=S)Nc2cc(C)ccc2OC(F)F)cc1 4.47 µM
O=C(N/N=C/c1cc(Cl)cc([N+](=O)[O-])c1O)c1ccccc1NS(=O)(=O)c1cccs1 2.82 µM

Potency, inconclusive:
COC(=O)C(Cc1c[nH]c2ccccc12)NC(=O)c1cncc(Br)c1 (centres undefined) 11.2 µM [activator, partial curve]
Clc1nc(CN2CCOCC2)nc2sc3c(c12)CCC3 15.8 µM [inhibitor, single point]
CN(C)S(=O)(=O)c1ccc(NC(=O)N2CCN(c3cccc(C(F)(F)F)c3)CC2)cc1 2 µM [activator, partial curve, poor fit]
CN(c1cccc(NC(=O)c2ccccc2N(C)S(C)(=O)=O)c1)S(C)(=O)=O 12.6 µM [inhibitor, single point]
CCn1c(SCC(=O)c2c[nH]c3ccccc23)nc2cc(S(=O)(=O)N3CCOCC3)ccc21 3.98 µM [activator, single point]
COc1ccc(C2Nc3ccc4ccccc4c3-c3c2c(=O)oc2ccccc32)cc1 (centres undefined) 2.51 µM [inhibitor, full curve, poor fit]
Fc1ccc(-n2c(-c3cc(C4CC4)[nH]n3)n[nH]c2=S)cc1Cl 28.2 µM [inhibitor, single point]
CCCCc1ccc(-c2nc(NC(=O)C3C4CCC(O4)C3C(=O)O)sc2C)cc1 (centres undefined) 35.5 µM [inhibitor, single point]
COc1cccc(CNS(=O)(=O)c2ccc3c(c2)CC(C)N3C(=O)C2CCC2)c1 (centres undefined) 35.5 µM [inhibitor, single point]
Cn1ccnc1Sc1ccc(C=O)cc1[N+](=O)[O-] 14.1 µM [inhibitor, single point]
Cc1ccc(C(=O)NC2CC(C)(C)NC(C)(C)C2)cc1 1.58 µM [inhibitor, partial curve]
Cc1ccc(NC(=O)c2ccn(C)n2)c(Br)c1 11.2 µM [inhibitor, single point]
N#CC(C(=O)Nc1ccccc1)=C1Nc2ccccc2N1 35.5 µM [inhibitor, single point]
Cc1ccc2nc(N3CCN(C=O)CC3)nc(-c3ccccc3)c2c1 0.158 µM [activator, full curve, poor fit]
Cn1c(O)c(C2=c3ccccc3=NC2=O)[nH]c1=S 3.55 µM [inhibitor, single point]
O=C(N/N=C1\C/C(=N\NC(=O)c2ccncc2)c2ccccc21)c1ccncc1 35.5 µM [inhibitor, single point]
O=c1cc(CSc2nc3ccccc3c(=O)[nH]2)c2ccc(O)cc2o1 6.31 µM [inhibitor, single point]
Cc1cc(NC(=O)CCC(=O)N(Cc2ccco2)C(C)(C)C(=O)NC2CCCCC2)no1 0.631 µM [inhibitor, partial curve, poor fit]
CC[C@H](C)[C@H](NC(=O)OCC1c2ccccc2-c2ccccc21)C(=O)O 25.1 µM [inhibitor, single point]
CC(=O)c1cccc(NC(=O)CCS(=O)(=O)c2cccc3nsnc23)c1 25.1 µM [inhibitor, single point]
C=CCn1c(=O)n2ncnc2c2c3c(sc21)CCCC3 5.62 µM [inhibitor, partial curve, poor fit]
Cc1cccc(-n2nnc(C(=O)Nc3ccc(F)cc3)c2N)c1 0.398 µM [activator, single point]
O=C(Nc1ccc(S(=O)(=O)N2CCc3ccccc3C2)cc1)C1CCCO1 (centres undefined) 31.6 µM [activator, single point]

Potency, inactive:
CC(C)C[C@H](NC(=O)[C@H](CC(C)C)NC(=O)[C@@H](Cc1c[nH]c2ccccc12)NC(=O)[C@H](Cc1ccccc1)NC(=O)[C@@H](Cc1c[nH]c2ccccc12)NC(=O)[C@H](CCC(N)=O)NC(=O)[C@H](CCC(N)=O)NC(=O)[C@@H]1CCCN1C(=O)[C@H](CCCCN)NC(=O)[C@@H]1CCCN1C(=O)[C@H](N)CCCN=C(N)N)C(N)=O
Cc1[nH]nc(N=CC2=C(O)CC(C)(C)CC2=O)c1-c1ccccc1
Cc1ccc(-n2nc(C)c3c2OC(N)=C(C#N)C3c2ccc(C)o2)cc1 (centres undefined)
CN(CCOc1ccccc1)C(=O)c1cc([N+](=O)[O-])cc([N+](=O)[O-])c1
CCOC(=O)c1c(C)c(C(=O)NCc2ccccc2OC)c(C)n1C
CCOc1ccc2nc(SCC3CC3(Cl)Cl)[nH]c2c1 (centres undefined)
COc1ccc(NC(=O)COc2cc(O)c3c(c2)OC(C)(C)CC3=O)cc1
Cc1ccc2c(c1)C(c1ccc([N+](=O)[O-])cc1)=NNC(c1ccc(Br)cc1)=N2
Cc1nc2ccccc2c(=O)n1CCN1CCOCC1
O=C1CCCCN1CCCC(=O)N1CCCC(Nc2ccc(F)cc2)C1 (centres undefined)
CC(=O)Nc1ccc(NS(=O)(=O)c2ccc(Cl)s2)cc1
CC(=O)c1cccc(NC(=O)c2ccoc2C)c1
COc1cc2cc(CN(CCc3ccccc3C)C(=S)NCCCN3CCOCC3)c(=O)[nH]c2cc1OC

3 entries drawn at random from the list so far, as already listed:
Potency, inactive:
CC(=O)Nc1ccc(NS(=O)(=O)c2ccc(Cl)s2)cc1
Cc1ccc2c(c1)C(c1ccc([N+](=O)[O-])cc1)=NNC(c1ccc(Br)cc1)=N2
O=C1CCCCN1CCCC(=O)N1CCCC(Nc2ccc(F)cc2)C1 (centres undefined)

— PubChem BioAssay AID2551 (National Center for Advancing Translational Sciences (NCATS), 2010)
